{"source": "patent US6218367A", "about": "“Paclitaxel-carbohydrate conjugates: design, synthesis and biological evaluations” (Organomed Corporation, priority 1999, dated 2001)", "origin": "cited, not measured here", "settings": "cited from earlier work", "note": "“Also recorded” adds a separate entry of the source."}
{"smiles": "CC(=O)O[C@H]1C(=O)[C@@]2(C)[C@H]([C@H](OC(=O)c3ccccc3)[C@]3(O)C[C@H](OC(=O)[C@H](O)[C@@H](NC(=O)c4ccccc4)c4ccccc4)C(C)=C1C3(C)C)[C@]1(OC(C)=O)CO[C@@H]1C[C@@H]2O", "note": "[paclitaxel]", "values": [{"measurement": "water solubility (in words)", "setting": "in water", "result": "extremely insoluble in water; also recorded: very low solubility in water"}, {"measurement": "water solubility", "setting": "reported solubility (Vyas et al., 1993)", "result": 0.25, "unit": "µg/mL"}]}
